The other results are listed elsewhere or left out. Repeats are few or missing, and single values can be far off.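 Cells were imaged in 1,536-well plates, and nuclei stained with an antibody against cleaved PARP were counted against all DNA-stained nuclei to give the apoptosis fraction. Screening doses were chosen to leave most cells alive, and resting and induced cleaved-PARP levels differ strongly between cell lines.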
What was measured:
Experiment in all cases: cleaved PARP positive nuclei fraction relative to DMSO control; melanoma cells; higher = more apoptosis
Settings in all cases: library dose: low library concentration; 72 h
MZ2-MEL = test system: MZ2-MEL
MeWo = test system: MeWo
RPMI7951 = test system: RPMI7951
RVH-421 = test system: RVH-421
SkMel28 = test system: SkMel28
SkMel2 = test system: SkMel2
SkMel30 = test system: SkMel30
SkMel5 = test system: SkMel5
UACC257 = test system: UACC257
UACC62 = test system: UACC62
WM115 = test system: WM115
WM1716 = test system: WM1716
WM1745 = test system: WM1745
WM3526 = test system: WM3526
WM3619 = test system: WM3619
WM451Lu = test system: WM451Lu

| SMILES | cleaved PARP positive nuclei fraction (MZ2-MEL) | cleaved PARP positive nuclei fraction (MeWo) | cleaved PARP positive nuclei fraction (RPMI7951) | cleaved PARP positive nuclei fraction (RVH-421) | cleaved PARP positive nuclei fraction (SkMel28) | cleaved PARP positive nuclei fraction (SkMel2) | cleaved PARP positive nuclei fraction (SkMel30) | cleaved PARP positive nuclei fraction (SkMel5) | cleaved PARP positive nuclei fraction (UACC257) | cleaved PARP positive nuclei fraction (UACC62) | cleaved PARP positive nuclei fraction (WM115) | cleaved PARP positive nuclei fraction (WM1716) | cleaved PARP positive nuclei fraction (WM1745) | cleaved PARP positive nuclei fraction (WM3526) | cleaved PARP positive nuclei fraction (WM3619) | cleaved PARP positive nuclei fraction (WM451Lu) |
| --- | --- | --- | --- | --- | --- | --- | --- | --- | --- | --- | --- | --- | --- | --- | --- | --- |
| Cc1ccc(Nc2nccc(N(C)c3ccc4c(C)n(C)nc4c3)n2)cc1S(N)(=O)=O [Pazopanib] + Cc1cc(N2CCOCC2)cc2[nH]c(-c3c(NC[C@@H](O)c4cccc(Cl)c4)cc[nH]c3=O)nc12 [BMS536924] (first compound 0.4 µM, partner dose 0.2 µM) | 219% | 53.9% | 96.7% | 29.4% | 29% | 153% | 106% | 59.8% | 108% | 109% | 104% | 86.6% | 115% | 35.1% | 204% | 47.5% |
| O=c1[nH]nc(Sc2ncc([N+](=O)[O-])s2)n1-c1ccc2c(c1)OCCO2 + NC(=O)Nc1cc(-c2cccc(F)c2)sc1C(=O)N[C@H]1CCCNC1 [AZD7762] (first compound 0.2 µM, partner dose 0.02 µM) | 100% | 69% | 59.1% | 81.4% | 219% | 97.9% | 63.2% | 37% | 215% | 92.5% | 48.7% | 71.9% | 218% | 65.3% | 146% | 59.2% |
| CCCCCCCCCCCCCCCCCCOP(=O)([O-])OC1CC[N+](C)(C)CC1 [Perifosine] + COc1cc2ncnc(Nc3ccc(Oc4ccccc4)cc3)c2cc1OC [SrcI1] (first compound 0.4 µM, partner dose 2 µM) | 92.3% | 67.1% | 152% | 132% | 179% | 54.9% | 85.9% | 247% | 40% | 140% | 177% | 48.3% | 86.9% | 92.9% | 70.8% | 104% |
| Cc1cc(Nc2cc(N3CCN(C)CC3)nc(Sc3ccc(NC(=O)C4CC4)cc3)n2)n[nH]1 [Tozasertib] + OCCn1cc(-c2cnc3nnn(Cc4ccc5ncccc5c4)c3n2)cn1 [PF04217903] (first compound 0.006 µM, partner dose 1 µM) | 58.3% | 108% | 76.3% | 95.5% | 57.8% | 71.3% | 72.9% | 146% | 93.4% | 64% | 61.8% | 64.1% | 99.8% | 60.1% | 121% | 47.8% |
| Cc1ccc(Nc2nccc(N(C)c3ccc4c(C)n(C)nc4c3)n2)cc1S(N)(=O)=O [Pazopanib] + COC(=O)c1sccc1S(=O)(=O)Nc1ccc(Nc2ccccc2)cc1OC [GSK0660] (first compound 0.4 µM, partner dose 1 µM) | 92.3% | 86.9% | 39.5% | 59.3% | 143% | 81.5% | 504% | 37.8% | 128% | 63.7% | 63.4% | 118% | 103% | 246% | 114% | 42.6% |
| CCCCCCCCCCCCCCCCCCOP(=O)([O-])OC1CC[N+](C)(C)CC1 [Perifosine] + CC(C)CCN1c2nc(Nc3cc(F)c(O)c(F)c3)ncc2N(C)C(=O)C1C [BID1870] (first compound 0.4 µM, partner dose 0.2 µM) | 188% | 565% | 147% | 111% | 16.1% | 88.8% | 91.7% | 74.1% | 59.8% | 206% | 138% | 25.1% | 83.8% | 93.1% | 88.9% | 42.7% |
| Cc1ccc(Nc2nccc(N(C)c3ccc4c(C)n(C)nc4c3)n2)cc1S(N)(=O)=O [Pazopanib] + OCCn1cc(-c2cnc3nnn(Cc4ccc5ncccc5c4)c3n2)cn1 [PF04217903] (first compound 0.4 µM, partner dose 1 µM) | 40% | 47.2% | 173% | 101% | 77.2% | 122% | 70.6% | 69.2% | 77.5% | 145% | 183% | 161% | 186% | 58.9% | 81.2% | 264% |
| O=C(Nc1cc(C(F)(F)F)cc(C(F)(F)F)c1)c1cc(Cl)ccc1O + NC(=O)Nc1cc(-c2cccc(F)c2)sc1C(=O)N[C@H]1CCCNC1 [AZD7762] (first compound 0.016 µM, partner dose 0.02 µM) | 80.6% | 54.8% | 118% | 88.9% | 129% | 73.1% | 47.6% | 41.3% | 179% | 147% | 139% | 201% | 96.6% | 51.5% | 122% | 123% |
| O=c1[nH]nc(Sc2ncc([N+](=O)[O-])s2)n1-c1ccc2c(c1)OCCO2 + NCC(=O)Nc1ccc(-n2nc(C(F)(F)F)cc2-c2ccc3c(ccc4ccccc43)c2)cc1 [OSU03012] (first compound 0.2 µM, partner dose 1 µM) | 97.1% | 63.5% | 88.5% | 86.8% | 171% | 391% | 114% | 209% | 48.1% | 68.2% | 77.1% | 181% | 86.7% | 104% | 85.3% | 251% |
| CC[C@]1(O)C[C@H]2CN(CCc3c([nH]c4ccccc34)[C@@](C(=O)OC)(c3cc4c(cc3OC)N(C=O)[C@H]3[C@@](O)(C(=O)OC)[C@H](OC(C)=O)[C@]5(CC)C=CCN6CC[C@]43[C@@H]65)C2)C1 [vincristine] + O=C(Nc1ccccc1)c1cc([N+](=O)[O-])ccc1Cl [GW9662] (first compound 0.0001 µM, partner dose 2 µM) | 63.7% | 119% | 116% | 114% | 97.8% | 93.7% | 222% | 210% | 299% | 194% | 1140% | 46.4% | 97.8% | 327% | 163% | 210% |
| Cc1cn(-c2cc(NC(=O)c3ccc(C)c(Nc4nccc(-c5cccnc5)n4)c3)cc(C(F)(F)F)c2)cn1 [nilotinib] + Cc1cc([N+](=O)[O-])ccc1NS(=O)(=O)c1cc(Cl)ccc1Cl [FH535] (first compound 0.2 µM, partner dose 1 µM) | 72.9% | 16.2% | 138% | 65.3% | 126% | 131% | 53.4% | 93.8% | 125% | 84.7% | 42.9% | 29.3% | 88% | 174% | 89.3% | 34.1% |
| CC[C@]1(O)C[C@H]2CN(CCc3c([nH]c4ccccc34)[C@@](C(=O)OC)(c3cc4c(cc3OC)N(C=O)[C@H]3[C@@](O)(C(=O)OC)[C@H](OC(C)=O)[C@]5(CC)C=CCN6CC[C@]43[C@@H]65)C2)C1 [vincristine] + CO[C@@H]1[C@H](N(C)C(=O)c2ccccc2)C[C@H]2O[C@]1(C)n1c3ccccc3c3c4c(c5c6ccccc6n2c5c31)C(=O)NC4 [Midostaurin] (first compound 0.0001 µM, partner dose 0.08 µM) | 29.7% | 115% | 53.4% | 109% | 145% | 97.8% | 151% | 40.7% | 158% | 91.1% | 689% | 927% | 92.3% | 149% | 121% | 66.1% |
| Cc1ccc(Nc2nccc(N(C)c3ccc4c(C)n(C)nc4c3)n2)cc1S(N)(=O)=O [Pazopanib] + Oc1cc(-c2nc(-c3ccccc3)[nH]c2-c2ccncc2)ccc1Cl [L779450] (first compound 0.4 µM, partner dose 0.2 µM) | 193% | 76.4% | 74.9% | 133% | 76.1% | 96.1% | 529% | 86.9% | 143% | 185% | 121% | 207% | 113% | 62.8% | 84.9% | 22.3% |
| CCCCCCCCCCCCCCCCCCOP(=O)([O-])OC1CC[N+](C)(C)CC1 [Perifosine] + COc1cc(Nc2ncc(F)c(Nc3ccc4c(n3)NC(=O)C(C)(C)O4)n2)cc(OC)c1OC [Tamatinib] (first compound 0.4 µM, partner dose 0.4 µM) | 241% | 139% | 369% | 135% | 81% | 154% | 141% | 71.9% | 208% | 101% | 71.4% | 310% | 149% | 83.8% | 189% | 136% |
| COc1cc([C@@H]2c3cc4c(cc3[C@@H](O[C@@H]3O[C@@H]5CO[C@@H](C)O[C@H]5[C@H](O)[C@H]3O)[C@H]3COC(=O)[C@H]23)OCO4)cc(OC)c1O [etoposide] + NC(=O)Nc1cc(-c2cccc(F)c2)sc1C(=O)N[C@H]1CCCNC1 [AZD7762] (first compound 0.02 µM, partner dose 0.02 µM) | 91.6% | 115% | 175% | 36.8% | 63.5% | 121% | 68% | 124% | 87.2% | 120% | 220% | 154% | 106% | 63.7% | 242% | 118% |
| N#CC[C@H](C1CCCC1)n1cc(-c2ncnc3[nH]ccc23)cn1 [ruxolitinib] + CCCCCCCCCCCC1=C(O)C(=O)C=C(O)C1=O [Embelin] (first compound 1 µM, partner dose 1.2 µM) | 40.3% | 115% | 27.9% | 48.8% | 136% | 20.5% | 25.8% | 147% | 65.3% | 115% | 62.9% | 49.3% | 200% | 70.1% | 91.7% | 82.8% |
| N#CC[C@H](C1CCCC1)n1cc(-c2ncnc3[nH]ccc23)cn1 [ruxolitinib] + O=C(O)c1ccc(-c2c[nH]c3ncc(-c4ccccc4)cc23)cc1C1CCCC1 [GSK650394] (first compound 1 µM, partner dose 0.16 µM) | 157% | 189% | 88.2% | 114% | 112% | 148% | 57.6% | 67.6% | 79% | 39.8% | 78.2% | 96.7% | 84.1% |  | 121% | 90.4% |

Taken from the entries so far (four entries):

| SMILES | cleaved PARP positive nuclei fraction (MZ2-MEL) | cleaved PARP positive nuclei fraction (MeWo) | cleaved PARP positive nuclei fraction (RPMI7951) | cleaved PARP positive nuclei fraction (RVH-421) | cleaved PARP positive nuclei fraction (SkMel28) | cleaved PARP positive nuclei fraction (SkMel2) | cleaved PARP positive nuclei fraction (SkMel30) | cleaved PARP positive nuclei fraction (SkMel5) | cleaved PARP positive nuclei fraction (UACC257) | cleaved PARP positive nuclei fraction (UACC62) | cleaved PARP positive nuclei fraction (WM115) | cleaved PARP positive nuclei fraction (WM1716) | cleaved PARP positive nuclei fraction (WM1745) | cleaved PARP positive nuclei fraction (WM3526) | cleaved PARP positive nuclei fraction (WM3619) | cleaved PARP positive nuclei fraction (WM451Lu) |
| --- | --- | --- | --- | --- | --- | --- | --- | --- | --- | --- | --- | --- | --- | --- | --- | --- |
| CC[C@]1(O)C[C@H]2CN(CCc3c([nH]c4ccccc34)[C@@](C(=O)OC)(c3cc4c(cc3OC)N(C=O)[C@H]3[C@@](O)(C(=O)OC)[C@H](OC(C)=O)[C@]5(CC)C=CCN6CC[C@]43[C@@H]65)C2)C1 [vincristine] + CO[C@@H]1[C@H](N(C)C(=O)c2ccccc2)C[C@H]2O[C@]1(C)n1c3ccccc3c3c4c(c5c6ccccc6n2c5c31)C(=O)NC4 [Midostaurin] (first compound 0.0001 µM, partner dose 0.08 µM) | 29.7% | 115% | 53.4% | 109% | 145% | 97.8% | 151% | 40.7% | 158% | 91.1% | 689% | 927% | 92.3% | 149% | 121% | 66.1% |
| Cc1ccc(Nc2nccc(N(C)c3ccc4c(C)n(C)nc4c3)n2)cc1S(N)(=O)=O [Pazopanib] + Oc1cc(-c2nc(-c3ccccc3)[nH]c2-c2ccncc2)ccc1Cl [L779450] (first compound 0.4 µM, partner dose 0.2 µM) | 193% | 76.4% | 74.9% | 133% | 76.1% | 96.1% | 529% | 86.9% | 143% | 185% | 121% | 207% | 113% | 62.8% | 84.9% | 22.3% |
| CCCCCCCCCCCCCCCCCCOP(=O)([O-])OC1CC[N+](C)(C)CC1 [Perifosine] + COc1cc(Nc2ncc(F)c(Nc3ccc4c(n3)NC(=O)C(C)(C)O4)n2)cc(OC)c1OC [Tamatinib] (first compound 0.4 µM, partner dose 0.4 µM) | 241% | 139% | 369% | 135% | 81% | 154% | 141% | 71.9% | 208% | 101% | 71.4% | 310% | 149% | 83.8% | 189% | 136% |
| COc1cc([C@@H]2c3cc4c(cc3[C@@H](O[C@@H]3O[C@@H]5CO[C@@H](C)O[C@H]5[C@H](O)[C@H]3O)[C@H]3COC(=O)[C@H]23)OCO4)cc(OC)c1O [etoposide] + NC(=O)Nc1cc(-c2cccc(F)c2)sc1C(=O)N[C@H]1CCCNC1 [AZD7762] (first compound 0.02 µM, partner dose 0.02 µM) | 91.6% | 115% | 175% | 36.8% | 63.5% | 121% | 68% | 124% | 87.2% | 120% | 220% | 154% | 106% | 63.7% | 242% | 118% |

From the supplement of paper PMC4604168 (melanoma cell lines)
